Reference: article PMC10345115
Results are given in words; binding and its absence hold for the method and conditions named. In cells and extracts the contact can be indirect. Some entries that bind do so weakly or less than the wild type. Sequences can lack the tags named with a protein.

Chains of the proteins cited; added tags and fusions are not shown.
UniProt Q92731: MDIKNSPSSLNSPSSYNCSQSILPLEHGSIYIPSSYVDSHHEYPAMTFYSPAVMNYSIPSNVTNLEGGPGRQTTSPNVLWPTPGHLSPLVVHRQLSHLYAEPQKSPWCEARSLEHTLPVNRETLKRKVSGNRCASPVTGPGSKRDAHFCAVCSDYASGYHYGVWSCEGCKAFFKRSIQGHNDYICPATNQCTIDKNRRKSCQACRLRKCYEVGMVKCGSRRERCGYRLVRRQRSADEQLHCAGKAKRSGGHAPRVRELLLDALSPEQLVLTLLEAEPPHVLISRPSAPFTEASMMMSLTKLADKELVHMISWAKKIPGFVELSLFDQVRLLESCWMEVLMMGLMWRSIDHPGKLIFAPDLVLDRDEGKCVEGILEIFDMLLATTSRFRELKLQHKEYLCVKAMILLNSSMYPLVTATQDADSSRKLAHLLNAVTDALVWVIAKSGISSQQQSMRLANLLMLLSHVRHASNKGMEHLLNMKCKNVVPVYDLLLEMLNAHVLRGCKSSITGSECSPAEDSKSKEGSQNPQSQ

Legend:
[1] = molecular target: Myc-ERβ (UniProt Q92731); assay: co-IP; 500 µg total protein from transfected cells; immunoprecipitation with 1 µg c-Myc antibody or Flag antibody at 4 °C overnight, Protein A Sepharose beads; western blot
[2] = molecular target: His-tagged ERβ (UniProt Q92731); assay: pull-down; in vitro His-tag pull-down with bacterially expressed GST/His-fused proteins; His-ERβ as bait

| binding [1] | binding [2] | Binder |
| --- | --- | --- |
| binds | – | Flag-WFDC3 (protein, UniProt Q8IUB2 25-231) GEHAKEGECPPHKNPCKELCQGDELCPAEQKCCTTGCGRICRDIPKGRKRDCPRVIRKQSCLKRCITDETCPGVKKCCTLGCNKSCVVPISKQKLAEFGGECPADPLPCEELCDGDASCPQGHKCCSTGCGRTCLGDIEGGRGGDCPKVLVGLCIVGCVMDENCQAGEKCCKSGCGRFCVPPVLPPKLTMNPNWTVRSDSELEIPVP |
| – | binds | GST-WFDC3 (protein, UniProt Q8IUB2 25-231) GEHAKEGECPPHKNPCKELCQGDELCPAEQKCCTTGCGRICRDIPKGRKRDCPRVIRKQSCLKRCITDETCPGVKKCCTLGCNKSCVVPISKQKLAEFGGECPADPLPCEELCDGDASCPQGHKCCSTGCGRTCLGDIEGGRGGDCPKVLVGLCIVGCVMDENCQAGEKCCKSGCGRFCVPPVLPPKLTMNPNWTVRSDSELEIPVP |
